Record: PubChem BioAssay AID1259405 (NCATS, 2018)

- Test: 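Silenced genes that increase secreted GFP made by CHO cells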 (primary screen)
- Cell system: Chinese hamster CHO-K1 ovary cells with stable secreted eGFP expression
- Reagent: single siRNA against mouse genes, 0.8 pmol siRNA per well (2 µl of 400 nM stock)
- Time to read-out: 3 days
- Detection: 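Percent of the per-plate non-targeting control median for intracellular GFP per well by laser scanning cytometry and for cell viability by ATP luminescence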
- Direction: GFP, % of control: higher = more GFP per well, higher productivity; viability (ATP), % of control: higher = more viable cells (more ATP)
- Active means: 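a knock-down is called active if GFP reaches 120% or more of non-targeting control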
In all, the deposit lists about 50,000 reagents; shown is a part drawn at random. About 4,000 of them (8%) count as active. 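Mouse siRNA library applied to hamster cells; one well for each siRNA.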 Unmarked entries are inactive. The numbers tell different reagents against one gene apart. Reagent sequences are not shown.

no.	gene	reagent	GFP, % of control	viability (ATP), % of control
1	Lhfpl2	1	75.4	76.2
2	Lhfpl2	2	62.4	80.2
3	Lhfpl2	3	107	98.1
4	Zwilch	1	93.8	81.7
5	Zwilch	2	51.2	24.3
6	Zwilch	3	58.9	82.2
7	Utp14b	1	52.5	47.3
8	Utp14b	2	68.5	82.6
9	Utp14b	3	81.1	88.3
10	Or5ak23	1	94.1	64.9
11	Or5ak23	2	90.4	93.4
12	Or5ak23	3	51.9	36.7
13	Kl	1	57.5	66.5
14	Kl	2	69.1	80
15	Kl	3	86.1	73.7
16	Chia1	1	88.7	66.4
17	Chia1	2	71.2	81.3
18	Chia1	3	46.4	49.8
19	Smu1	1	108	37.1
20	Smu1	2	77.8	65.6
21	Smu1	3	63.9	73.2
22	Slc33a1	1	51.1	104
23	Slc33a1	2	104	71.5
24	Slc33a1	3	89.5	68.3
25	Mmab	1	41.5	56.2
26	Mmab	2	29.5	25.3
27	Mmab	3	73.8	57.7
28	Mtbp	1	53.2	69.1
29	Mtbp	2	43.9	55
30	Mtbp	3	80.2	58.3
31	Nampt	1	84.9	153
32	Nampt	2	80.2	77.5
33	Pde3b	1	57.3	62.2
34	Pde3b	2	103	52.4
35	Pde3b	3	72.7	119
36	Nqo1	1	34.9	64
37	Nqo1	2	51.2	65.1
38	Zscan21	1	137 (active)	105
39	Zscan21	2	92.2	95.9
40	Ube2n	1	127 (active)	98.8
41	Ube2n	2	82.5	85.9
42	Ube2n	3	91.9	107
43	Gpbp1l1	1	38.4	34.8
44	Gpbp1l1	2	71.6	75.7
45	Gpbp1l1	3	91.9	101
46	Hif1a	1	90.3	52.6
47	Hif1a	2	96.5	97.8
48	Atp5po	1	67.9	61.8
49	Atp5po	2	119	113
50	Atp5po	3	80.6	80.4
51	Brk1	1	90.8	91.6
52	Brk1	2	107	96.1
53	Brk1	3	102	91
54	Slc16a4	1	99.7	88.5
55	Slc16a4	2	58.3	53.3
56	Slc16a4	3	93.5	76.9
57	Mtx1	1	87.4	55.1
58	Mtx1	2	89.7	91
59	Mtx1	3	80.6	49.7
60	Ift88	1	62.5	85.6
61	Ift88	2	109	112
62	Ift88	3	71.6	117
63	Idi1	1	88.6	79.4
64	Idi1	2	71	66.6
65	Idi1	3	76.7	82.4
66	Exoc3	1	86.1	66
67	Exoc3	2	58	61.7
68	Exoc3	3	77.8	76.5
69	Sod1	1	107	59.4
70	Sod1	2	123 (active)	75.5
71	Sod1	3	100	70.4
72	Ech1	1	88.6	87.2
73	Ech1	2	69.9	80.3
74	Ech1	3	76.3	84.3
75	Or5ak22	1	115	45.3
76	Or5ak22	2	94.8	68.6
77	Or5ak22	3	47.5	45.9
78	P2rx4	1	79.9	80.4
79	P2rx4	2	64.3	63.1
80	P2rx4	3	79.7	89.1
81	Krtap4-13	1	134 (active)	66.4
82	Krtap4-13	2	72.8	80.8
83	Krtap4-13	3	87	44.4
84	Tmigd3	1	147 (active)	42.8
85	Tmigd3	2	65.9	33.6
86	Tmigd3	3	128 (active)	134
87	Blvrb	1	61.9	75.5
88	Blvrb	2	96.6	82
89	Gm6787	1	147 (active)	118
90	Gm6787	2	57.5	55.7
91	Gm6787	3	84.5	102
92	Garin5b	1	73.2	81
93	Garin5b	2	96.2	76.6
94	Garin5b	3	92	103
95	Ltk	1	58.6	62.8
96	Zfp51	1	57.5	54.8
97	Zfp51	2	71.1	76.4
98	Zfp51	3	76.3	35.3
99	Gpr149	1	142 (active)	54.6
100	Gpr149	2	76.9	71.1
101	Gpr149	3	73.7	86.4
102	Cd244a	1	88.8	59.4
103	Cd244a	2	54.2	29.8
104	Cd244a	3	66.7	51.1
105	Cep41	1	53.2	53.5
106	Cep41	2	77.5	69.3
107	Cep41	3	67.5	67.5

6 entries from above in another layout:
{"gene": "Smu1", "reagent": 3, "GFP, % of control": 63.9, "viability (ATP), % of control": 73.2}
{"gene": "Slc33a1", "reagent": 1, "GFP, % of control": 51.1, "viability (ATP), % of control": 104}
{"gene": "Slc33a1", "reagent": 2, "GFP, % of control": 104, "viability (ATP), % of control": 71.5}
{"gene": "Slc33a1", "reagent": 3, "GFP, % of control": 89.5, "viability (ATP), % of control": 68.3}
{"gene": "Mmab", "reagent": 1, "GFP, % of control": 41.5, "viability (ATP), % of control": 56.2}
{"gene": "Mmab", "reagent": 2, "GFP, % of control": 29.5, "viability (ATP), % of control": 25.3}
